Reference: PubChem BioAssay AID743121 (NCATS, 2013)

Assay: 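Genes whose silencing strengthens cell killing by camptothecin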 (primary screen)
Cells: MDA-MB-231 cells, a human breast cancer line
Knock-down reagent: single siRNA against human genes, 20 nM siRNA (0.8 pmol per well)
Duration: 120 h (drug added 48 h after transfection, read 72 h later)
Conditions: camptothecin 20 nM (about EC30) for 72 h; vehicle 0.1% DMSO in parallel plates
Detection: 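CellTiter-Glo ATP signal, scaled to control siRNA as percent viability; sensitisation given as log2 of untreated divided by camptothecin-treated viability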
Direction: log2 vehicle/camptothecin viability: higher = stronger sensitisation to camptothecin; viability with camptothecin and viability without drug: higher = more viable cells
Rule for the call: 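Each gene scored by redundant siRNA activity (RSA) over its individual siRNA ratios; a gene is called active at p < 0.001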
This is a random part of about 26,000 deposited reagents. In the full data, 167 (0.63%) are marked active. 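Calls are per gene from RSA p-values that are not deposited; an individual active-marked siRNA can sensitise only weakly.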 Reagents against one gene are numbered here. Reagent sequences are not shown.

no.	Gene	reagent no.	log2 vehicle/camptothecin viability	viability with camptothecin (% of control)	viability without drug (% of control)	outcome
1	IL5	1	-0.16	74.2	66.4	inactive
2	IL5	2	0.1	83.6	89.6	inactive
3	IL5	3	-0.241	90.1	76.2	inactive
4	IL5	4	-0.455	85	62	inactive
5	PGK1	1	0.161	61.9	69.2	inactive
6	PGK1	2	0.26	35.5	42.5	inactive
7	PGK1	3	-1.07	14.7	7.02	inactive
8	PGK1	4	-0.168	88.9	79.1	inactive
9	NR4A1	1	-0.308	75.9	61.3	inactive
10	NR4A1	2	0.203	22.7	26.1	inactive
11	NR4A1	3	-0.318	75.9	60.9	inactive
12	NR4A1	4	0.0794	56.1	59.3	inactive
13	AIF1	1	0.202	80.3	92.3	inactive
14	AIF1	2	-0.0503	98.7	95.3	inactive
15	AIF1	3	-0.412	84.9	63.8	inactive
16	AIF1	4	-0.097	93.7	87.6	inactive
17	ITPK1	1	-0.206	54.9	47.6	inactive
18	ITPK1	2	-0.263	90.3	75.3	inactive
19	ITPK1	3	0.0448	29.8	30.8	inactive
20	ITPK1	4	-0.416	85	63.7	inactive
21	DKK3	1	-0.224	70.5	60.4	inactive
22	DKK3	2	0.0139	90.1	90.9	inactive
23	DKK3	3	-0.088	89.8	84.5	inactive
24	DKK3	4	0.0898	69.7	74.2	inactive
25	THUMPD2	1	-0.438	48.5	35.8	inactive
26	THUMPD2	2	0.139	53.9	59.4	inactive
27	THUMPD2	3	-0.122	110	101	inactive
28	THUMPD2	4	0.368	51.9	67	inactive
29	IRAK2	1	-0.44	111	82	inactive
30	IRAK2	2	0.111	63.8	68.9	inactive
31	IRAK2	3	-0.626	97.1	62.9	inactive
32	IRAK2	4	-0.548	60.7	41.5	inactive
33	PAFAH1B3	1	-0.587	56.8	37.8	inactive
34	PAFAH1B3	2	-0.357	71.5	55.8	inactive
35	PAFAH1B3	3	-0.0463	91.6	88.7	inactive
36	COL8A1	1	-0.593	66.7	44.2	inactive
37	COL8A1	2	-0.129	91.4	83.5	inactive
38	COL8A1	3	0.0554	33.9	35.2	inactive
39	NCSTN	1	0.0916	77	82	inactive
40	NCSTN	2	0.0507	96.9	100	inactive
41	NCSTN	3	-0.229	26.8	22.9	inactive
42	NCSTN	4	-0.232	79.5	67.7	inactive
43	TPSAB1	1	-0.183	96.8	85.3	inactive
44	TPSAB1	2	-0.153	121	109	inactive
45	TPSAB1	3	-0.128	28.3	25.9	inactive
46	GRK7	1	-0.777	33	19.3	inactive
47	GRK7	2	-0.68	68.5	42.7	inactive
48	GRK7	3	-0.398	95	72.1	inactive
49	GRK7	4	-0.225	49.4	42.3	inactive
50	TPX2	1	-0.524	59	41	inactive
51	TPX2	2	-0.202	85.6	74.4	inactive
52	TPX2	3	-0.694	33.7	20.8	inactive
53	TPX2	4	0.33	32.1	40.3	inactive
54	CCNT1	1	0.0495	91.3	94.5	inactive
55	CCNT1	2	-1	76.1	37.9	inactive
56	CCNT1	3	-0.263	89	74.2	inactive
57	ARHGEF2	1	-0.361	78	60.8	inactive
58	ARHGEF2	2	-0.324	91.4	73	inactive
59	ARHGEF2	3	-0.514	78.4	54.9	inactive
60	ARHGEF2	4	-0.348	73	57.3	inactive
61	IRS2	1	-0.431	86	63.8	inactive
62	IRS2	2	-0.0224	90.3	88.9	inactive
63	IRS2	3	0.0621	89.1	93	inactive
64	NLGN2	1	0.762	16.4	27.9	inactive
65	NLGN2	2	0.117	89.6	97.1	inactive
66	NLGN2	3	0.00648	34.6	34.8	inactive
67	NLGN2	4	-0.0807	54.2	51.3	inactive
68	RAC1	1	-0.704	87.8	53.9	inactive
69	RAC1	2	-0.382	94.4	72.4	inactive
70	RAC1	3	-0.155	53.7	48.3	inactive
71	RAC1	4	-0.388	66.1	50.5	inactive
72	KIF20B	1	-0.142	115	104	inactive
73	KIF20B	2	0.013	88.9	89.7	inactive
74	KIF20B	3	-0.181	111	97.9	inactive
75	KIF20B	4	-0.406	106	80.1	inactive
76	RC3H2	1	-0.323	32.5	26	inactive
77	RC3H2	2	0.118	66.7	72.4	inactive
78	RC3H2	3	0.705	22.9	37.3	inactive
79	LPAR5	1	-0.568	95.6	64.5	inactive
80	LPAR5	2	-0.248	7.09	5.97	inactive
81	LPAR5	3	-0.48	74.3	53.3	inactive
82	LPAR5	4	-0.156	85.2	76.4	inactive
83	PTGIS	1	-0.334	111	88.3	inactive
84	PTGIS	2	-0.357	45	35.1	inactive
85	PTGIS	3	0.335	63.3	79.8	inactive
86	PTGIS	4	0.794	36.1	62.7	inactive
87	ANGPTL2	1	0.00443	80.1	80.4	inactive
88	ANGPTL2	2	0.134	86.9	95.4	inactive
89	ANGPTL2	3	0.15	44.6	49.4	inactive

Targets listed so far whose target name begins with N or n (12):
Gene	reagent no.	log2 vehicle/camptothecin viability	viability with camptothecin (% of control)	viability without drug (% of control)	outcome
NR4A1	1	-0.308	75.9	61.3	inactive
NR4A1	2	0.203	22.7	26.1	inactive
NR4A1	3	-0.318	75.9	60.9	inactive
NR4A1	4	0.0794	56.1	59.3	inactive
NCSTN	1	0.0916	77	82	inactive
NCSTN	2	0.0507	96.9	100	inactive
NCSTN	3	-0.229	26.8	22.9	inactive
NCSTN	4	-0.232	79.5	67.7	inactive
NLGN2	1	0.762	16.4	27.9	inactive
NLGN2	2	0.117	89.6	97.1	inactive
NLGN2	3	0.00648	34.6	34.8	inactive
NLGN2	4	-0.0807	54.2	51.3	inactive
